In patent publication US6107094:
For part of these data: No signal at the amounts used counts as a negative. For part of these data: Tags and fusion partners may be left off the protein sequences shown. For part of these data: The exact form of at least one protein or probe is not confirmed. For part of these data: A weaker result is weaker than the reference pair of the same experiment.

Columns and labels:
Test in all cases: enzyme reaction in vitro
[1] = test system: dsRNase activity of T24 cell extract (Homo sapiens); settings: protein in an extract
[2] = molecular target: T1, RNase H (Escherichia coli) (UniProt P0A7Y4); settings: label: 32P 5' end of sense RNA
T1 sequence (looked up, limits assumed): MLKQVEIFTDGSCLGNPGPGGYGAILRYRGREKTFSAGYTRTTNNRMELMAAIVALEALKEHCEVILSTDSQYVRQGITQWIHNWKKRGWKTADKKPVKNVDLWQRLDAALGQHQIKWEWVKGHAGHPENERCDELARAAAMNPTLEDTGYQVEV

[3] = test system: dsRNase (partially purified from rat liver cytosol, ion exchange and gel filtration) (Rattus norvegicus); settings: both strands 2'-OMe PS wings flanking 8-ribonucleotide gap; sense gap phosphodiester; Mg2+ required; 10 mM MgCl2, pH 7.5, 37 C; several sites in gap; purified native protein; label: 32P 5' end of sense strand
[4] = test system: dsRNase activity of rat liver nuclear extract (Rattus norvegicus); settings: both strands 2'-OMe PS wings flanking 8-ribonucleotide gap; sense gap phosphodiester; Mg2+ required; 37 C, 240 min; protein in an extract; label: 32P 5' end of sense strand
[5] = antisense strand 2'-OMe wings with ribonucleotide gap, T24 homogenate, only SEQ 8 gapmer supported cleavage, label: 32P target RNA

Sequence: AAUGCAUGUCACAGGCGGGA / UCCCGCCUGUGACAUGCAUU [c-raf RNA gapmer:RNA duplex (SEQ 7/8)]
- activity on this sequence ([1]; antisense strand 2'-OMe wings with ribonucleotide gap, T24 homogenate, much slower than DNA gapmer, label: 32P target RNA): less active

Sequence: GGGCGCCGUCGGUGUGG / CCACACCGACGGCGCCC [Ha-ras 9 DNA gapmer:RNA duplex]
- activity on this sequence ([2]; antisense strand with 9-deoxynucleotide gap, modified wings, cleavage restricted to DNA:RNA portion): active

Sequence: GGGCGCCGUCGGUGUGG / CCACACCGACGGCGCCC [Ha-ras 9 RNA gapmer:RNA duplex]
- activity on this sequence ([2]; antisense strand 2'-OMe wings with 9-ribonucleotide gap, PS throughout, no digestion products): not active
- activity on this sequence ([1]; antisense strand 2'-OMe wings with 9-ribonucleotide gap, PS throughout, cytosolic extract, 37 C, cleavage within RNA:RNA portion, nuclear extract comparable, label: 32P 5' end of sense RNA): active

Sequence: GGGCGCCGUCGGUGUGG / CCACACCGACGGCGCCC [Ha-ras artificial dsRNase substrate, both strands gapped]
- activity on this sequence [3]: active
- activity on this sequence [4]: active

Sequence: CCGAAUGUGACCGCCUCCCG / CGGGAGGCGGUCACAUUCGG [c-raf RNA gapmer:RNA duplex (SEQ 3/4)]
- activity on this sequence [1, 5]: not active

Sequence: GGGCGCCGUCGGUGUGG / CCACACCGACGGCGCCC [Ha-ras full oligodeoxynucleotide:RNA duplex]
- activity on this sequence ([2]; antisense strand all deoxy (T for U), cleaved, DNA:RNA hybrid): active

Sequence: UCAAUGGAGCACAUACAGGG / CCCUGUAUGUGCUCCAUUGA [c-raf RNA gapmer:RNA duplex (SEQ 5/6)]
- activity on this sequence [1, 5]: not active
